Laboratory results reported in the supplement of paper PMC10849652.
The other results are listed elsewhere or left out.

Chains of the proteins cited; added tags and fusions are not shown. Lines headed by an entry give the natural chain unless they say otherwise; changes in a name come on top.
UniProt Q9UI10, whole entry, looked up: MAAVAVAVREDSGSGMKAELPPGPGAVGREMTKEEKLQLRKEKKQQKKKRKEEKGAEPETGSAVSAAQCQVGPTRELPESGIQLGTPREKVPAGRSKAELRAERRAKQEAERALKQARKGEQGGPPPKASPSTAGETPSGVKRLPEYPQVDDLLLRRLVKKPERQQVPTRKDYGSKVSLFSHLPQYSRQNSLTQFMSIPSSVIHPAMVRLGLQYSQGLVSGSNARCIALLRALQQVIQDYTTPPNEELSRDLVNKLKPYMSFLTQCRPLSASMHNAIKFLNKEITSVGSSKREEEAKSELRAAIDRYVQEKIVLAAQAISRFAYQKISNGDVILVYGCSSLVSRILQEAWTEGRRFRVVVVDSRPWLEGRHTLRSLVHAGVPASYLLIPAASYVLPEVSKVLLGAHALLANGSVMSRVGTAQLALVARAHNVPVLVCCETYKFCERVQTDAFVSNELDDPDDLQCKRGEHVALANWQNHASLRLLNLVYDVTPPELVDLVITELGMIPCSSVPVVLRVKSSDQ
UniProt Q13216, whole entry, looked up: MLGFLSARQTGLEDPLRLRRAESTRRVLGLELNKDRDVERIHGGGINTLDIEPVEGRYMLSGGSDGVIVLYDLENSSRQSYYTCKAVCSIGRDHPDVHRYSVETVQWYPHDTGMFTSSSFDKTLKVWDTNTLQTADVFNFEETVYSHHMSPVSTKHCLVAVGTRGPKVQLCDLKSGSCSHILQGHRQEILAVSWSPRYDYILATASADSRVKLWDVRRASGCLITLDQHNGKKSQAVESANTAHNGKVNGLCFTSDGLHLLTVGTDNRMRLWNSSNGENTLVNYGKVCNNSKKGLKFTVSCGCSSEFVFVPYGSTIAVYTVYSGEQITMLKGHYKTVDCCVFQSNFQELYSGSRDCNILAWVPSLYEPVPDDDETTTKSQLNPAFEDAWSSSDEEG
UniProt O14638, whole entry, looked up: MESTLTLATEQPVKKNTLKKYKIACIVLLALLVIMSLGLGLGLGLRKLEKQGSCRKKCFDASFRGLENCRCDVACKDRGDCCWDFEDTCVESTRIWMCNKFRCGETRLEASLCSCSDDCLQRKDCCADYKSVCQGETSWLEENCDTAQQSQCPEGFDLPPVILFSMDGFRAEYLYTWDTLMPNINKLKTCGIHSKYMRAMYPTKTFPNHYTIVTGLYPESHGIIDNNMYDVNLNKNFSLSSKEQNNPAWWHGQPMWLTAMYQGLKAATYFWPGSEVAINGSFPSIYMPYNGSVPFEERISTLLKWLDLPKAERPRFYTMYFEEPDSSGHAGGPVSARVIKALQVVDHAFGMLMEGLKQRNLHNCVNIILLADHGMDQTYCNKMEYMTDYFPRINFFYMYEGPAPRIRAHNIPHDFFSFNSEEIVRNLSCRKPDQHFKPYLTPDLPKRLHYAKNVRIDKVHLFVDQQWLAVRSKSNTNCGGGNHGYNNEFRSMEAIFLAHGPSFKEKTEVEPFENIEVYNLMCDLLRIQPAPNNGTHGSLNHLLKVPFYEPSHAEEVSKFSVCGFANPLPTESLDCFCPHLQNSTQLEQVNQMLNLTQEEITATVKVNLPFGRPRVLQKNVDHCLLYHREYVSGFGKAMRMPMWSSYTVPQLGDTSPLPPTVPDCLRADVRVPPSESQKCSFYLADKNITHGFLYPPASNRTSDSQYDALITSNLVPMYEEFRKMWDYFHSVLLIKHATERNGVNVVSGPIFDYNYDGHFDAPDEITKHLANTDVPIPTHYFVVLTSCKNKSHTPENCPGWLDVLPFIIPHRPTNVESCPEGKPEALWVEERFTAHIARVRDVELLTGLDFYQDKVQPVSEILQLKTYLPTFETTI
UniProt Q52LR7, whole entry, looked up: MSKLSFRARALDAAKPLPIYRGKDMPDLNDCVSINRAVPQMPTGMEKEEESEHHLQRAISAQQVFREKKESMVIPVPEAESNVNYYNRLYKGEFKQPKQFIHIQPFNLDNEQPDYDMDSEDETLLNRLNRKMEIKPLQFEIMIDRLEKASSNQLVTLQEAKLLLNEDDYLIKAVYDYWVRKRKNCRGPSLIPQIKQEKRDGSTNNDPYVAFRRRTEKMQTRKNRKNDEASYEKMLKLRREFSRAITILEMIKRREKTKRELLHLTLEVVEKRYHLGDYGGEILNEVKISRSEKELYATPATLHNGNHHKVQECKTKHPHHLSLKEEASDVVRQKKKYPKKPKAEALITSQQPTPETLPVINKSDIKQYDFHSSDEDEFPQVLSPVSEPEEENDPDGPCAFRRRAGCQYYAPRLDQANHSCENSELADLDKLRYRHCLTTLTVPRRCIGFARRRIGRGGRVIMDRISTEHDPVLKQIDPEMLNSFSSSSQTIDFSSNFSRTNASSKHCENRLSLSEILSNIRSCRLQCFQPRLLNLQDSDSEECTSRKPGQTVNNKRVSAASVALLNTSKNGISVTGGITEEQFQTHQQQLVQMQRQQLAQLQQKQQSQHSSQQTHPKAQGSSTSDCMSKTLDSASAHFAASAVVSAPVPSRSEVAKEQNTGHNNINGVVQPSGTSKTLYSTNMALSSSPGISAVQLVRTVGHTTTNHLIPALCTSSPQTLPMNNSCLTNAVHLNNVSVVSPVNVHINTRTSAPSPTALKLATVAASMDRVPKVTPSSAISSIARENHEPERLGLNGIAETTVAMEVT
UniProt Q9Y2J2, whole entry, looked up: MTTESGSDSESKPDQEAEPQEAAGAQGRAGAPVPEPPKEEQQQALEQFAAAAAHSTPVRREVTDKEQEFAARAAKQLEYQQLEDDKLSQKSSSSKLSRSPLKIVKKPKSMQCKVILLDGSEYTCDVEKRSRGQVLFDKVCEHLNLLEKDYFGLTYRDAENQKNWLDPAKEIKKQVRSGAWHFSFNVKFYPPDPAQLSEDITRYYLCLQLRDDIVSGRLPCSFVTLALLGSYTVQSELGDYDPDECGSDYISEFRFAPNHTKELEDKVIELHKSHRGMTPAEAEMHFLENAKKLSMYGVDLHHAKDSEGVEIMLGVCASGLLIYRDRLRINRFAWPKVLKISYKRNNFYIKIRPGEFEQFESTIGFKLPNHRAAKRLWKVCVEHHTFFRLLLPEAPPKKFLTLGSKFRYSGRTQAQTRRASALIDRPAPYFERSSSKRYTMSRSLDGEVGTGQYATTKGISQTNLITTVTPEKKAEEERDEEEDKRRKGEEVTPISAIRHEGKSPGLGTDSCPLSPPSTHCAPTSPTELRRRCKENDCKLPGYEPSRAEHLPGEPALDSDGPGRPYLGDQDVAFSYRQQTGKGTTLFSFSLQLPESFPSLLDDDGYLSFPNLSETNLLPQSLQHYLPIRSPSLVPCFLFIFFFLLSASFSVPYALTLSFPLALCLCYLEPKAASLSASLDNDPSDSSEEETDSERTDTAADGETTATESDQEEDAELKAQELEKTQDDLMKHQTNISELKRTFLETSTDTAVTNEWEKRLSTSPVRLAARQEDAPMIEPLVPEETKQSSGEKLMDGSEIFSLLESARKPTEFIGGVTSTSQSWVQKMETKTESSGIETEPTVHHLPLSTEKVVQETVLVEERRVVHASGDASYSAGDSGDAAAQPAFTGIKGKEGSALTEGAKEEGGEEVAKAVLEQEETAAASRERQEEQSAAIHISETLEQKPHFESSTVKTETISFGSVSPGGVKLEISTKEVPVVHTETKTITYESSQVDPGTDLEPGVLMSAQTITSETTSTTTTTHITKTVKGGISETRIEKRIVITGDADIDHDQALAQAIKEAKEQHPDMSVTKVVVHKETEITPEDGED
UniProt P16422: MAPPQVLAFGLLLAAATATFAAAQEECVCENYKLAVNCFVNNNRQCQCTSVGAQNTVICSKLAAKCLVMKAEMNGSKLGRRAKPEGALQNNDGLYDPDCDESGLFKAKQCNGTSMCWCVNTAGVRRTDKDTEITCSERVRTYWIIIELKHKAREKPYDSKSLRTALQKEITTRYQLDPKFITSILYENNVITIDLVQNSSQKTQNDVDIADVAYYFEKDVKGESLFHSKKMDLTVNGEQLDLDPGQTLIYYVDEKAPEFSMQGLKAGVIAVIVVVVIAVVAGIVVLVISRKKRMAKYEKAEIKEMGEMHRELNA
UniProt Q99613, whole entry, looked up: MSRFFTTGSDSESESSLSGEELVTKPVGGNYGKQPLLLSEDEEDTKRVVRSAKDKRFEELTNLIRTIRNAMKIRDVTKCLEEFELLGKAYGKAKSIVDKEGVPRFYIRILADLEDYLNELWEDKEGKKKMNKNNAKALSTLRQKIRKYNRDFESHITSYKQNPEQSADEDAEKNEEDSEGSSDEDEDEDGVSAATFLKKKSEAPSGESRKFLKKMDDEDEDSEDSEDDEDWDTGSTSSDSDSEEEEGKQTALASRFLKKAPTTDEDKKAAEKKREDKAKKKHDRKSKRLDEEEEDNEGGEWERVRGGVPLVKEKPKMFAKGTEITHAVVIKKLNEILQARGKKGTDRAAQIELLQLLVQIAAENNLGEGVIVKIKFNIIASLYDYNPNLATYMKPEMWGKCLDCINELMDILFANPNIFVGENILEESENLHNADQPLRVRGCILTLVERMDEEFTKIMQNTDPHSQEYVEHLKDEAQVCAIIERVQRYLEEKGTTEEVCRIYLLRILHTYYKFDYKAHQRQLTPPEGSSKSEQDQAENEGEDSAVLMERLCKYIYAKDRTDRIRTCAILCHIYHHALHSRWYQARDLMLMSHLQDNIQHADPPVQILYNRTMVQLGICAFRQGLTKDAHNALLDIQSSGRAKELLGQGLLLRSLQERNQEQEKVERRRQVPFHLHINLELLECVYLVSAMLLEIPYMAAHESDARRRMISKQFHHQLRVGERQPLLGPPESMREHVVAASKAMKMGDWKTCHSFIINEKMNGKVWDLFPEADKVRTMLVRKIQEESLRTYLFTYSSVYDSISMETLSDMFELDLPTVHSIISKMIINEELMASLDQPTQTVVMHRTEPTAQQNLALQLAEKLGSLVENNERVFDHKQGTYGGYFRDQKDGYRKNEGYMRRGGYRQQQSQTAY
UniProt Q969X5: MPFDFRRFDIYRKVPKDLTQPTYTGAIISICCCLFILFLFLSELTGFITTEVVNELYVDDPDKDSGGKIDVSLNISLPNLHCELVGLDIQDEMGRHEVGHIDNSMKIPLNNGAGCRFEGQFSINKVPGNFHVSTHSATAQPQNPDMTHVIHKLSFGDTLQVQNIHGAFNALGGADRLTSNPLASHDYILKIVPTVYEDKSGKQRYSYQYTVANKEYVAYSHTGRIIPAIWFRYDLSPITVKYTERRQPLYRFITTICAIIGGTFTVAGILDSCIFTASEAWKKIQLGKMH
UniProt Q15369, whole entry, looked up: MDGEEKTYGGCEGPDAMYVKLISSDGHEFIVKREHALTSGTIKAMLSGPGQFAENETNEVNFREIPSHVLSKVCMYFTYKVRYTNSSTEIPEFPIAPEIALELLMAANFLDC
UniProt O75616: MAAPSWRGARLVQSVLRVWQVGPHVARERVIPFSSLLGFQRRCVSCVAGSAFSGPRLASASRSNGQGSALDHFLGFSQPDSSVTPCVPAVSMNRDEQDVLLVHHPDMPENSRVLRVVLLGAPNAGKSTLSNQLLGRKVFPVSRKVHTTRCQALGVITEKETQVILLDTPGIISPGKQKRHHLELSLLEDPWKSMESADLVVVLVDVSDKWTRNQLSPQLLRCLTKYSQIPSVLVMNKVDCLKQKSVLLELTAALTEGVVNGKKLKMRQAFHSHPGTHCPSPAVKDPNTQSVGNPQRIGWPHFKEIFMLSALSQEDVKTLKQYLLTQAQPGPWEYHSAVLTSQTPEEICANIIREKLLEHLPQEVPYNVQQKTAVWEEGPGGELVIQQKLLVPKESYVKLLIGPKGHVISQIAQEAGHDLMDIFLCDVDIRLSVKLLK
UniProt O75354: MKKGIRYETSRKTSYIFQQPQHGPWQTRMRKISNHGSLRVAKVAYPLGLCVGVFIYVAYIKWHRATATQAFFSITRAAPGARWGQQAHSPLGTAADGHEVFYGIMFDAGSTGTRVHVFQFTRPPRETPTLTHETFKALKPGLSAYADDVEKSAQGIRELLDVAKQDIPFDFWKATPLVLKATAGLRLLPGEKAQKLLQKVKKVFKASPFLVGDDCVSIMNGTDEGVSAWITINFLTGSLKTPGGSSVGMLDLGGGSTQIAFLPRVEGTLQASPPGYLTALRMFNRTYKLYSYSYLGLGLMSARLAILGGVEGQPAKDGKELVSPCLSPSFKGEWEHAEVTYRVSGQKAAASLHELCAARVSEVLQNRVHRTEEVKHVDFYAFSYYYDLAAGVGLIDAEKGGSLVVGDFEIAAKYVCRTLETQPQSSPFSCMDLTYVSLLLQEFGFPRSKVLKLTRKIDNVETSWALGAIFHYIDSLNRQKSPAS

Assays:
Experiment in all cases: log2 fold change, soluble protein after heating vs DMSO (PISA); higher = thermal stabilisation; K562 lysate, 10 uM; active = over 0.2 and 3.5 SD of the protein, either way, in both replicates (recomputed)
lapatinib = compound: CS(=O)(=O)CCNCc1ccc(-c2ccc3ncnc(Nc4ccc(OCc5cccc(F)c5)c(Cl)c4)c3c2)o1 [lapatinib]
Procedure, shortened: (§1)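 Values give the log-two fold change in thermal stability against solvent controls, from duplicates. Crude K562 extract at 1 mg/mL protein, made by dounce homogenisation in PBS pH 7.4 with 1 mM MgCl2, was treated with 10 μM compound for 30 min. After 3 min heating across 48°C-58°C, aliquots were pooled, adjusted to 0.5% NP-40 at 4°C and centrifuged at 21,000xg for 90 min. The supernatant was measured by TMTpro 16plex LC-MS/MS with channel sums equalised.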

pictilisib = compound: CS(=O)(=O)N1CCN(Cc2cc3nc(-c4cccc5[nH]ncc45)nc(N4CCOCC4)c3s2)CC1 [pictilisib]
Procedure, shortened: as §1

crizotinib = compound: C[C@@H](Oc1cc(-c2cnn(C3CCNCC3)c2)cnc1N)c1c(Cl)ccc(F)c1Cl [crizotinib]
Procedure, shortened: as §1

duvelisib = compound: C[C@H](Nc1ncnc2nc[nH]c12)c1cc2cccc(Cl)c2c(=O)n1-c1ccccc1 [duvelisib]
Procedure, shortened: as §1

doramapimod = compound: Cc1ccc(-n2nc(C(C)(C)C)cc2NC(=O)Nc2ccc(OCCN3CCOCC3)c3ccccc23)cc1 [doramapimod]
Procedure, shortened: as §1

bafetinib = compound: Cc1ccc(NC(=O)c2ccc(CN3CC[C@H](N(C)C)C3)c(C(F)(F)F)c2)cc1Nc1nccc(-c2cncnc2)n1 [bafetinib]
Procedure, shortened: as §1

dasatinib = compound: Cc1nc(Nc2ncc(C(=O)Nc3c(C)cccc3Cl)s2)cc(N2CCN(CCO)CC2)n1 [dasatinib]
Procedure, shortened: as §1

[1] = compound: Cn1cc(-c2ccc3c(c2)CCN3C(=O)Cc2cccc(C(F)(F)F)c2)c2c(N)ncnc21
Procedure, shortened: as §1

quisinostat = compound: Cn1cc(CNCC2CCN(c3ncc(C(=O)NO)cn3)CC2)c2ccccc21 [quisinostat]
Procedure, shortened: as §1

[2] = compound: NC(=O)Nc1cc(-c2cccc(F)c2)sc1C(=O)N[C@H]1CCCNC1
Procedure, shortened: as §1

[3] = compound: NC(=O)c1cnc(N[C@@H]2CCCC[C@@H]2N)nc1Nc1cccc(-n2nccn2)c1
Procedure, shortened: as §1

tozasertib = compound: Cc1cc(Nc2cc(N3CCN(C)CC3)nc(Sc3ccc(NC(=O)C4CC4)cc3)n2)n[nH]1 [tozasertib]
Procedure, shortened: as §1

nilotinib = compound: Cc1cn(-c2cc(NC(=O)c3ccc(C)c(Nc4nccc(-c5cccnc5)n4)c3)cc(C(F)(F)F)c2)cn1 [nilotinib]
Procedure, shortened: as §1

[4] = compound: Cc1nc(Nc2n[nH]c3c2CN(C(=O)N[C@H](CN(C)C)c2ccccc2)C3(C)C)c2sccc2n1
Procedure, shortened: as §1

[5] = compound: Cc1ncc(-c2ccnc(Nc3ccc(S(C)(=O)=O)cc3)n2)n1C(C)C
Procedure, shortened: as §1

tipifarnib = compound: Cn1cncc1[C@@](N)(c1ccc(Cl)cc1)c1ccc2c(c1)c(-c1cccc(Cl)c1)cc(=O)n2C [tipifarnib]
Procedure, shortened: as §1

[6] = compound: NC1(c2ccc(-c3nc4ccn5c(=O)[nH]nc5c4cc3-c3ccccc3)cc2)CCC1
Procedure, shortened: as §1

[7] = compound: C[C@H](C1=CC=C(C=C1)C(=O)NC2=C3C=CNC3=NC=C2)N
Procedure, shortened: as §1

gandotinib = compound: Cc1cc(Nc2cc(CN3CCOCC3)c3nc(C)c(Cc4ccc(Cl)cc4F)n3n2)n[nH]1 [gandotinib]
Procedure, shortened: as §1

[8] = compound: Cc1cccc(CC(=O)N2CCc3c2ccc(-c2cn(C)c4ncnc(N)c24)c3F)n1
Procedure, shortened: as §1

Target | log2 fold change (lapatinib) | log2 fold change (pictilisib) | log2 fold change (crizotinib) | log2 fold change (duvelisib) | log2 fold change (doramapimod) | log2 fold change (bafetinib) | log2 fold change (dasatinib) | log2 fold change [1] | log2 fold change (quisinostat) | log2 fold change [2] | log2 fold change [3] | log2 fold change (tozasertib) | log2 fold change (nilotinib) | log2 fold change [4] | log2 fold change [5] | log2 fold change (tipifarnib) | log2 fold change [6] | log2 fold change [7] | log2 fold change (gandotinib) | log2 fold change [8]
EIF4B (UniProt F8VP89) | inactive: -0.107 | inactive: -0.14 | inactive: -0.252 | inactive: 0.066 | inactive: -0.213 | inactive: 0.033 | inactive: -0.125 | inactive: -0.017 | inactive: -0.352 | inactive: 0.037 | inactive: -0.01 | – | – | – | – | – | – | – | – | –
EIF2B4 (UniProt Q9UI10) | inactive: -0.003 | inactive: 0.038 | inactive: -0.057 | inactive: -0.032 | inactive: -0.019 | inactive: -0.04 | inactive: 0.014 | inactive: -0.022 | inactive: 0.02 | inactive: 0.022 | inactive: 0.039 | active: -0.314 | inactive: 0.053 | inactive: -0.005 | inactive: 0.033 | inactive: 0.016 | inactive: -0.021 | – | – | –
EMC2 (UniProt Q15006) | inactive: -0.021 | inactive: 0.007 | inactive: 0.009 | inactive: -0.051 | inactive: -0.027 | inactive: 0.009 | inactive: 0.01 | inactive: 0.031 | inactive: 0.026 | inactive: 0.02 | inactive: 0.008 | inactive: 0.01 | inactive: 0.005 | inactive: -0.015 | inactive: -0.016 | inactive: 0.015 | inactive: -0.009 | inactive: 0.026 | inactive: -0.07 | inactive: -0.017
ELOVL1 (UniProt Q9BW60) | inactive: -0.189 | inactive: -0.026 | inactive: -0.104 | inactive: -0.039 | inactive: -0.093 | inactive: -0.052 | inactive: -0.012 | inactive: -0.05 | inactive: -0.038 | inactive: 0.091 | inactive: 0.065 | inactive: 0.029 | – | – | – | – | inactive: -0.053 | inactive: -0.014 | inactive: -0.177 | inactive: 0.046
EMP3 (UniProt P54852) | inactive: 0 | inactive: -0.03 | inactive: -0.002 | inactive: 0 | inactive: 0.029 | inactive: -0.019 | inactive: -0.046 | inactive: -0.046 | inactive: -0.144 | inactive: 0.013 | inactive: -0.035 | inactive: -0.078 | inactive: 0.007 | inactive: 0.094 | inactive: 0.02 | inactive: 0.031 | inactive: -0.008 | active: -0.763 | active: 0.351 | active: 0.329
ERCC8 (UniProt Q13216) | inactive: -0.055 | inactive: 0.065 | inactive: -0.021 | – | inactive: 0.065 | inactive: -0.06 | – | – | inactive: -0.05 | inactive: -0.007 | inactive: 0.084 | – | inactive: 0.047 | inactive: -0.002 | inactive: -0.151 | inactive: 0.046 | – | inactive: -0.083 | inactive: 0.042 | inactive: 0.02
EIF2B4 isoform 2 (UniProt Q9UI10) | inactive: -0.041 | inactive: 0.007 | inactive: -0.037 | inactive: -0.013 | inactive: -0.012 | inactive: -0.058 | inactive: -0.022 | inactive: 0.011 | inactive: 0 | inactive: 0.074 | inactive: -0.003 | inactive: -0.01 | inactive: -0.002 | inactive: 0.004 | inactive: 0.003 | inactive: 0.037 | inactive: 0.002 | inactive: -0.021 | inactive: -0.048 | inactive: 0.044
ENPP3 (UniProt O14638) | inactive: -0.015 | inactive: -0.029 | inactive: -0.005 | inactive: 0.007 | inactive: -0.08 | inactive: -0.005 | inactive: 0.034 | inactive: 0.008 | inactive: -0.051 | inactive: 0.006 | inactive: 0.022 | inactive: -0.053 | inactive: 0.099 | inactive: -0.07 | inactive: 0.133 | inactive: 0.026 | inactive: 0.053 | inactive: -0.018 | inactive: 0.027 | inactive: 0.024
EPC2 (UniProt Q52LR7) | inactive: 0.091 | inactive: -0.066 | inactive: 0.061 | inactive: -0.077 | inactive: -0.047 | inactive: 0.246 | inactive: -0.039 | inactive: 0.031 | inactive: 0.093 | inactive: 0.011 | inactive: -0.186 | inactive: 0.062 | – | – | – | – | – | – | – | –
EPB41L3 (UniProt Q9Y2J2) | inactive: 0.002 | inactive: 0 | inactive: 0.097 | inactive: -0.024 | inactive: 0.027 | inactive: -0.019 | inactive: 0.021 | inactive: 0.015 | inactive: 0.136 | inactive: 0 | inactive: -0.022 | inactive: 0.034 | inactive: -0.036 | inactive: 0.027 | inactive: 0.009 | inactive: -0.015 | inactive: 0.053 | inactive: -0.029 | inactive: 0.02 | inactive: 0.067
EPCAM (UniProt P16422) | inactive: -0.033 | inactive: -0.017 | inactive: 0.039 | inactive: 0.022 | inactive: -0.003 | inactive: -0.025 | inactive: -0.023 | inactive: -0.015 | inactive: -0.076 | inactive: 0.007 | inactive: 0.062 | inactive: -0.03 | inactive: 0.009 | inactive: -0.021 | inactive: -0.006 | inactive: 0.012 | inactive: 0.008 | inactive: 0.029 | inactive: -0.07 | inactive: -0.05
EIF3C (UniProt Q99613) | inactive: -0.015 | inactive: 0.011 | inactive: -0.06 | inactive: 0.016 | inactive: 0.016 | inactive: -0.038 | inactive: -0.026 | inactive: 0.038 | inactive: -0.005 | inactive: 0.006 | inactive: 0.002 | inactive: -0.014 | inactive: -0.03 | inactive: 0.006 | inactive: -0.008 | inactive: 0.011 | inactive: -0.018 | inactive: -0.029 | inactive: -0.066 | inactive: 0.069
ERGIC1 (UniProt Q969X5) | inactive: -0.005 | inactive: 0.018 | inactive: 0.005 | inactive: 0.023 | inactive: -0.034 | inactive: -0.059 | inactive: 0.027 | inactive: 0.019 | inactive: -0.001 | inactive: 0.038 | inactive: 0.019 | inactive: 0.029 | inactive: -0.011 | inactive: 0.047 | inactive: -0.008 | inactive: -0.026 | inactive: -0.003 | inactive: -0.018 | inactive: 0.008 | inactive: 0.04
ELOC (UniProt Q15369) | inactive: 0.008 | inactive: -0.026 | inactive: 0.011 | inactive: -0.049 | inactive: -0.018 | inactive: -0.046 | inactive: -0.017 | inactive: -0.01 | inactive: 0.034 | inactive: -0.006 | inactive: -0.068 | inactive: -0.041 | inactive: 0.032 | inactive: -0.012 | inactive: 0.06 | inactive: 0.08 | inactive: -0.019 | inactive: 0.017 | inactive: -0.017 | inactive: -0.041
ERAL1 (UniProt O75616) | inactive: 0.075 | inactive: -0.025 | inactive: -0.035 | inactive: 0.014 | inactive: 0.006 | inactive: -0.079 | inactive: 0.01 | inactive: 0.018 | inactive: -0.078 | inactive: 0.083 | inactive: -0.052 | inactive: 0.041 | inactive: 0 | inactive: -0.001 | inactive: 0.003 | inactive: -0.027 | inactive: 0.008 | inactive: -0.152 | active: 0.321 | inactive: 0.03
ENTPD6 (UniProt O75354) | inactive: -0.041 | inactive: 0.057 | inactive: -0.03 | inactive: 0.03 | inactive: 0.018 | inactive: -0.101 | inactive: -0.033 | inactive: 0.103 | inactive: 0.044 | inactive: 0.017 | inactive: -0.032 | – | – | – | – | – | inactive: 0.023 | inactive: -0.096 | inactive: -0.05 | inactive: -0.021
EIF4H isoform 2 (UniProt Q15056) | inactive: 0.027 | inactive: -0.192 | inactive: 0.148 | inactive: -0.027 | inactive: -0.214 | inactive: 0.353 | inactive: 0.089 | inactive: -0.01 | inactive: 0.232 | inactive: 0.018 | inactive: -0.064 | inactive: -0.09 | – | – | – | – | inactive: 0 | – | – | –

Complete entries from above. Order of values: log2 fold change (lapatinib) | log2 fold change (pictilisib) | log2 fold change (crizotinib) | log2 fold change (duvelisib) | log2 fold change (doramapimod) | log2 fold change (bafetinib) | log2 fold change (dasatinib) | log2 fold change [1] | log2 fold change (quisinostat) | log2 fold change [2] | log2 fold change [3] | log2 fold change (tozasertib) | log2 fold change (nilotinib) | log2 fold change [4] | log2 fold change [5] | log2 fold change (tipifarnib) | log2 fold change [6] | log2 fold change [7] | log2 fold change (gandotinib) | log2 fold change [8]
EIF4B (UniProt F8VP89) as listed: inactive: -0.107 | inactive: -0.14 | inactive: -0.252 | inactive: 0.066 | inactive: -0.213 | inactive: 0.033 | inactive: -0.125 | inactive: -0.017 | inactive: -0.352 | inactive: 0.037 | inactive: -0.01 | – | – | – | – | – | – | – | – | –
EIF3C (UniProt Q99613) as listed: inactive: -0.015 | inactive: 0.011 | inactive: -0.06 | inactive: 0.016 | inactive: 0.016 | inactive: -0.038 | inactive: -0.026 | inactive: 0.038 | inactive: -0.005 | inactive: 0.006 | inactive: 0.002 | inactive: -0.014 | inactive: -0.03 | inactive: 0.006 | inactive: -0.008 | inactive: 0.011 | inactive: -0.018 | inactive: -0.029 | inactive: -0.066 | inactive: 0.069
